In PubChem BioAssay AID493014 (National Center for Advancing Translational Sciences (NCATS), 2011):
The list shows a part of the results. Further columns of the screen follow, without active or inactive calls. The list favours compounds with an active or inconclusive main result. The note in brackets gives the kind of curve behind each potency; many fits are weak.

Experiment: qHTS Assay to Find Inhibitors of Chronic Active B-Cell Receptor Signaling
Conditions: ABC-DLBCL IkBa-CBG/CBR reporter, luminescence ratio (green luciferase fused to IkBa over red control in TMD8 lymphoma cells), 4 h
Method in brief: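 Cell line TMD8 (human ABC DLBCL), stably expressing tet-inducible CBG68-IkBa fusion and CBR; IMDM/0.5% FBS; cpd up to 46 uM; dox induction, 4 h, 37C/5% CO2; dual luminescence; green/red ratio; MG132 control.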

[1] = measured here: CBR red luminescence, cell number
[2] = measured here: IkBa-CBG green luminescence

SMILES: Cc1ccc(-c2c[n+](CC(=O)c3ccc(Br)cc3)c3n2CCCCC3)cc1
- AC50 [1]: 35.5 µM [falling, single point]

SMILES: Cc1ccc(C(=O)N/N=C\c2ccc[nH]2)cc1[N+](=O)[O-]
- AC50 [1]: 10 µM [falling, partial curve, poor fit]

SMILES: CCOc1cc(/C=N\NC(=O)Cn2nc([N+](=O)[O-])cc2C)ccc1OCc1cccc2ccccc12
- AC50 [2]: 6.51 µM [rising, partial curve, poor fit]

SMILES: COc1ccc(-c2noc(-c3cc(C)cc(C)c3)n2)cc1OC
- AC50 [1]: 3.66 µM [rising, full curve]

SMILES: COc1ccc(-c2nnc(SCC(=O)NC3CCCCC3)o2)cc1OC
- AC50 [1]: 2.06 µM [falling, single point]

SMILES: Cc1cccc(NCc2cccc3ccccc23)n1
- AC50 [1]: 11.2 µM [rising, partial curve, poor fit]

SMILES: CCCCSc1nc2c(cnn2-c2ccc(Cl)cc2)c(=O)[nH]1
- AC50 [1]: 29.1 µM [rising, single point]

SMILES: COc1ccc(-c2cc(=O)c3c(O)cc(O[C@@H]4O[C@H](CO[C@@H]5O[C@@H](C)[C@H](O)[C@@H](O)[C@H]5O)[C@@H](O)[C@H](O)[C@H]4O)cc3o2)cc1O
- AC50 [1]: 5.62 µM [rising, single point]

SMILES: O=S(=O)(c1ccccc1)N1c2cc(Cl)ccc2Oc2nc3ccccc3nc21
- AC50 [1]: 0.82 µM [rising, full curve, poor fit]

SMILES: C=CCNC(=O)N1CCc2[nH]c3ccc(F)cc3c2C1
- AC50 [1]: 15.8 µM [falling, single point]

SMILES: CC(Cc1ccccc1)NC(=O)c1cc([N+](=O)[O-])ccc1Cl (stereo not given)
- AC50 [1]: 1.26 µM [rising, partial curve, poor fit]

SMILES: COc1ccc(Cl)cc1NC(=O)COC(=O)c1cc(NS(=O)(=O)c2cccs2)ccc1O
- AC50 [1]: 20.6 µM [falling, partial curve]

SMILES: COc1ccc(N2C(=O)C3CC(C)=C(C)CC3C2=O)c(OC)c1 (stereo not given)
- AC50 [1]: 6.51 µM [rising, single point]

SMILES: COc1ccc(N2Cc3ccccc3C2=O)cc1
- AC50 [1]: 14.1 µM [falling, single point]

SMILES: CCOc1ccc(/C=C2\SC(=S)N(CCC(=O)Nc3cccc(C(=O)O)c3)C2=O)cc1
- AC50 [1]: 7.94 µM [falling, partial curve]

SMILES: Cc1cc(C)c(S(=O)(=O)Cc2ccccc2)c(OC(C)C)n1
- AC50 [1]: 3.16 µM [rising, full curve, poor fit]

SMILES: CNC(=S)N/N=C/c1ccc(OCc2ccccc2)c(Br)c1
- AC50 [1]: 14.6 µM [rising, partial curve]

SMILES: O=C(CNC(=O)c1cccs1)NCC(=O)OCc1cccc(Cl)c1
- AC50 [1]: 17.8 µM [rising, partial curve, poor fit]

SMILES: O=[N+]([O-])c1ccc(NS(=O)(=O)c2cccc3cccnc23)cc1
- AC50 [1]: 35.5 µM [rising, partial curve, poor fit]

SMILES: CS(=O)(=O)c1ncc(Cl)c(C(=O)Nc2ccc3ccccc3c2)n1
- AC50 [1]: 3.16 µM [falling, full curve]

SMILES: N/C(=N\OC(=O)c1ccccc1)c1ccncc1
- AC50 [1]: 35.5 µM [falling, single point]

SMILES: O=[N+]([O-])c1ccc(-c2csc(N3CCCCCC3)n2)cc1
- AC50 [1]: 7.08 µM [rising, full curve]

SMILES: CCOc1cc(/C=C/c2ccc3cccc([N+](=O)[O-])c3n2)ccc1OCC(=O)N(C)C
- AC50 [1]: 35.5 µM [falling, single point]

SMILES: COc1ccc(NC(=O)c2c(F)cccc2F)cc1S(=O)(=O)Nc1ccc(Br)cc1
- AC50 [1]: 7.31 µM [falling, partial curve]

SMILES: CCn1c(Cc2ccccc2)n[nH]c1=S
- AC50 [1]: 6.31 µM [rising, single point]

SMILES: Cc1nn2c(COc3ccc(NC(=O)C(C)C)cc3)nnc2c2ccccc12
- AC50 [1]: 1.41 µM [rising, partial curve, poor fit]

SMILES: COc1cccc(CC(=O)OC(C)C(=O)Nc2ncc(Cl)cc2Cl)c1 (stereo not given)
- AC50 [1]: 2.91 µM [rising, full curve]

SMILES: O=C(Nc1ccc(C(=O)O)cc1)/C(=C\c1cccc([N+](=O)[O-])c1)NC(=O)c1ccc(Br)o1
- AC50 [1]: 11.2 µM [falling, partial curve]

SMILES: C/C(=N\NC(=O)c1cc(-c2cccs2)nc2ccccc12)c1ccccn1
- AC50 [1]: 3.16 µM [rising, single point]

SMILES: O=C(NCc1ccccc1Br)c1cccc2c1C(=O)c1ccc(-c3ccc(OC(F)(F)F)cc3)cc1S2(=O)=O
- AC50 [1]: 9.2 µM [rising, partial curve]

SMILES: O=C(Nc1ccc([N+](=O)[O-])cc1)Nn1cnnc1
- AC50 [1]: 17.8 µM [rising, single point]

SMILES: O=C(NCCCN1CCCCCC1)c1ccc2c(Cl)c3c(nc2c1)CCCC3
- AC50 [1]: 17.8 µM [falling, single point]

SMILES: N#Cc1ccc(/C=C/C(=O)c2cccnc2)cc1
- AC50 [1]: 22.4 µM [rising, single point]

SMILES: FC(F)(F)c1cnc2c(-c3ccc(Cl)cc3Cl)noc2c1
- AC50 [1]: 29.1 µM [rising, single point]

SMILES: COc1cccc(C(=O)/C(C#N)=N/Nc2cccc(-c3ccnc(C)n3)c2)c1
- AC50 [1]: 4.47 µM [rising, full curve, poor fit]

SMILES: CC(C)c1ccc(NC2CCCN(C(=O)CCN3CCCCO3)C2)cc1 (stereo not given)
- AC50 [1]: 17.8 µM [rising, single point]

SMILES: CN(Cc1ccc(C(F)(F)F)cc1)C(=O)c1ccc2ccccc2n1
- AC50 [1]: 15.8 µM [rising, single point]

SMILES: COc1ccc(S(=O)(=O)Nc2ccc3c(c2)n(C)c(=O)n3C)cc1
- AC50 [1]: 35.5 µM [rising, single point]
- AC50 [2]: 14.1 µM [falling, partial curve, poor fit]

SMILES: COc1ccc(Br)c(-c2nnc(CS(=O)(=O)c3ccccc3)o2)c1
- AC50 [1]: 12.6 µM [rising, partial curve, poor fit]

SMILES: CC/C(=N\NC(=O)c1ccc2c(c1)OCO2)C12CC3CC(CC(C3)C1)C2
- AC50 [1]: 13 µM [falling, partial curve]

SMILES: Cc1ccc2nc(SCC(=O)Nc3ccc(Br)cc3)nc(=O)n2c1
- AC50 [1]: 29.1 µM [rising, single point]

SMILES: CCOC(=O)c1[nH]c(C)c(/C(O)=C2\C(=O)C(=O)N(CCCN(C)C)C2c2ccncc2)c1C (stereo not given)
- AC50 [1]: 0.631 µM [falling, partial curve, poor fit]

SMILES: Oc1ccc(N=Nc2ccccc2)o1
- AC50 [1]: 35.5 µM [falling, single point]

SMILES: Cc1c(CCC(=O)O)c(=O)oc2cc3occ(-c4ccccc4)c3cc12
- AC50 [1]: 3.98 µM [rising, partial curve, poor fit]

SMILES: Cc1cc(Nc2nnnn2-c2ccccc2)n(-c2ccc(Cl)cc2)n1
- AC50 [1]: 6.31 µM [falling, partial curve]

SMILES: O=C(NCc1ccc(F)cc1)C1CC(=O)N(Cc2ccco2)C1 (stereo not given)
- AC50 [1]: 35.5 µM [falling, single point]

SMILES: CCOc1ccccc1NC(=O)COc1cccc2c(=O)n(CCOC)ccc12
- AC50 [1]: 0.158 µM [falling, full curve, poor fit]

SMILES: Cc1cc(Br)c(Cl)cc1NC(=O)CN1C(=O)C2C3CC(c4ccccc4)C(C3)C2C1=O (stereo not given)
- AC50 [1]: 20.6 µM [falling, partial curve]

SMILES: O=C1CCCc2nc3nc4ccccc4n3cc21
- AC50 [1]: 35.5 µM [falling, single point]

SMILES: COCCn1c(SCCCc2ccccc2)nc2c1c(=O)[nH]c(=O)n2C
- AC50 [1]: 1.41 µM [falling, full curve]

SMILES: O=c1c2ccccc2nc(/C=C/c2cc(Br)ccc2O)n1CCCO
- AC50 [1]: 12.6 µM [falling, single point]

SMILES: O=C(NCCC1CCCCN1S(=O)(=O)c1ccc(F)cc1)C(=O)NCc1cccnc1 (stereo not given)
- AC50 [1]: 1.64 µM [falling, partial curve, poor fit]

SMILES: CCN(CC)S(=O)(=O)c1ccc(NC(=O)c2ccc(Cl)nc2)cc1
- AC50 [1]: 4.47 µM [falling, full curve, poor fit]

SMILES: COc1ccccc1NC(=O)CCCNC(=O)Cn1cnc2sc(C)c(C)c2c1=O
- AC50 [1]: 35.5 µM [falling, single point]

SMILES: NC(=O)c1oc2ccccc2c1NC(=O)C1CC(=O)N(c2ccccc2)C1 (stereo not given)
- AC50 [1]: 5.17 µM [falling, partial curve, poor fit]
- AC50 [2]: 2.31 µM [rising, partial curve, poor fit]

SMILES: O=C(Nc1ccccc1)c1cccc(N2C(=O)C3C4C=CC(C5CC45)C3C2=O)c1 (stereo not given)
- AC50 [1]: 22.4 µM [falling, single point]

SMILES: N#Cc1cccc(NC(=O)CCc2ccc(S(=O)(=O)N3CCOCC3)cc2)c1
- AC50 [1]: 29.1 µM [falling, single point]

SMILES: COc1ccc(C(=O)CSc2nnc(CNC(=O)c3ccccc3)n2C)cc1
- AC50 [1]: 1 µM [rising, full curve, poor fit]

SMILES: COc1cc(C2Nc3ccccc3C(=O)N2c2ccccc2OC)ccc1O (stereo not given)
- AC50 [1]: 11.6 µM [falling, partial curve]

SMILES: CCCC1(CCC)C(=O)NC(=NCCc2ccc(OC)c(OC)c2)NC1=O
- AC50 [1]: 29.1 µM [rising, partial curve, poor fit]

SMILES: O=[N+]([O-])c1nn(-c2ccc3c(c2)OCCO3)n(O)c1=NC1CCCCC1
- AC50 [1]: 16.4 µM [rising, single point]

SMILES: Cc1ccc(CNC(=O)CCC2CCCN(Cc3cccc4cccnc34)C2)o1 (stereo not given)
- AC50 [1]: 22.4 µM [falling, partial curve, poor fit]

SMILES: CCOc1ccc2nc(NS(=O)(=O)Cc3ccccc3)sc2c1
- AC50 [2]: 2.91 µM [falling, full curve]
